This passage reports log2 fold change results from the supplement of paper PMC10849652.

By UniProt entry, the sequences of proteins in these tests, tags left out. Where a name states a change or a piece, a line headed by the entry shows the natural chain unless it says otherwise.
UniProt O75054: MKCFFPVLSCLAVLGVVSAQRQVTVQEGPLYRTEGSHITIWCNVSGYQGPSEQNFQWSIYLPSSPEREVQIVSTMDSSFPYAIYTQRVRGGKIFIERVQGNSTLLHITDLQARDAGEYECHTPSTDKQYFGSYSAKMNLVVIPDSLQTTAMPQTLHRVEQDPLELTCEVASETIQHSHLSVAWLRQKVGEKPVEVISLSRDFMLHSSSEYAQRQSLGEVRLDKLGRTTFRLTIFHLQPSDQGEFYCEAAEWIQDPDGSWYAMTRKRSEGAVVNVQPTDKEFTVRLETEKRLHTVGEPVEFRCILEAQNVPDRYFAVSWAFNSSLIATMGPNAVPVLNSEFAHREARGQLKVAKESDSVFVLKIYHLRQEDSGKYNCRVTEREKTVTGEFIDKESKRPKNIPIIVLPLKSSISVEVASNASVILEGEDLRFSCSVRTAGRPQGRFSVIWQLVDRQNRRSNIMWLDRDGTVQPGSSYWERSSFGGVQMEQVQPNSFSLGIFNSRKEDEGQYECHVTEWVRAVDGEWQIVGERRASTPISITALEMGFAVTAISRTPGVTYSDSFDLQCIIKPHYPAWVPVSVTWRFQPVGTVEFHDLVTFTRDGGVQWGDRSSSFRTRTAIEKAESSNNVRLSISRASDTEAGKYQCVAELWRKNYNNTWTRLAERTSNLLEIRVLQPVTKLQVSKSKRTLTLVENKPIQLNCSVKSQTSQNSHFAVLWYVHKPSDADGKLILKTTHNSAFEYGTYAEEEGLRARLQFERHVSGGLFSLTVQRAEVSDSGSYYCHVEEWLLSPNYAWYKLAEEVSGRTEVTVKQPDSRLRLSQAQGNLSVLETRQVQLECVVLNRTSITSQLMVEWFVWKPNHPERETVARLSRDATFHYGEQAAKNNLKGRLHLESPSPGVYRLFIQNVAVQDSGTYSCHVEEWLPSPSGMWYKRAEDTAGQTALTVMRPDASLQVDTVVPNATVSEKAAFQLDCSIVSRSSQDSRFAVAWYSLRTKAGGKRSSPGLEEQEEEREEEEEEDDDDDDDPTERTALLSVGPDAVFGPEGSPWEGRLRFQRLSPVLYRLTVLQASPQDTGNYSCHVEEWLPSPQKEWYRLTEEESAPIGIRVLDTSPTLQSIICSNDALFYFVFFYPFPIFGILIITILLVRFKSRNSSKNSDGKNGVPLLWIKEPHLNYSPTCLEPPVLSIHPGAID
UniProt P05362: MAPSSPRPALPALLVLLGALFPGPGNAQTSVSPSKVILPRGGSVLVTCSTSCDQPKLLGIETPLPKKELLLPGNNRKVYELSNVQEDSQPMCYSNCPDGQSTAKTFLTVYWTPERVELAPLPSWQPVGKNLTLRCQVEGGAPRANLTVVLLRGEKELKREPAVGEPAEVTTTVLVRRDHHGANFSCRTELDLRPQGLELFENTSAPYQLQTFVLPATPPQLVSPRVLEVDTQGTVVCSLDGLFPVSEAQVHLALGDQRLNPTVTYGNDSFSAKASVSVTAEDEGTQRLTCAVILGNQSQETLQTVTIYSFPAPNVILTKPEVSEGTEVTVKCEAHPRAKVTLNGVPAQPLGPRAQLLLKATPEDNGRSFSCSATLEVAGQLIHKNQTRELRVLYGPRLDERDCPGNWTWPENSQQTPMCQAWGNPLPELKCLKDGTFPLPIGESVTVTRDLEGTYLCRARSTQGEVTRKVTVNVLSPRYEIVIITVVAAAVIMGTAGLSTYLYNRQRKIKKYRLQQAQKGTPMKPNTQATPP
UniProt O43837: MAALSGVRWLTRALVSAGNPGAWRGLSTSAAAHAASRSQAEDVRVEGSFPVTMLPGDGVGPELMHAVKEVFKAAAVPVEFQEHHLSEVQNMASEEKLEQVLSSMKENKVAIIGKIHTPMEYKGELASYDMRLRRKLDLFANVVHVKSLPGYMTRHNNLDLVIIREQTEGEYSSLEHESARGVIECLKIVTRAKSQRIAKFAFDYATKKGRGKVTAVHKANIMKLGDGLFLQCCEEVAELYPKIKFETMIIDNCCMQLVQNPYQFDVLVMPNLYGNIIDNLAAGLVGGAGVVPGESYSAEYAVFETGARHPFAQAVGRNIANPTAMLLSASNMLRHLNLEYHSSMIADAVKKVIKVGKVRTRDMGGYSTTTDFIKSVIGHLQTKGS
UniProt Q969P0: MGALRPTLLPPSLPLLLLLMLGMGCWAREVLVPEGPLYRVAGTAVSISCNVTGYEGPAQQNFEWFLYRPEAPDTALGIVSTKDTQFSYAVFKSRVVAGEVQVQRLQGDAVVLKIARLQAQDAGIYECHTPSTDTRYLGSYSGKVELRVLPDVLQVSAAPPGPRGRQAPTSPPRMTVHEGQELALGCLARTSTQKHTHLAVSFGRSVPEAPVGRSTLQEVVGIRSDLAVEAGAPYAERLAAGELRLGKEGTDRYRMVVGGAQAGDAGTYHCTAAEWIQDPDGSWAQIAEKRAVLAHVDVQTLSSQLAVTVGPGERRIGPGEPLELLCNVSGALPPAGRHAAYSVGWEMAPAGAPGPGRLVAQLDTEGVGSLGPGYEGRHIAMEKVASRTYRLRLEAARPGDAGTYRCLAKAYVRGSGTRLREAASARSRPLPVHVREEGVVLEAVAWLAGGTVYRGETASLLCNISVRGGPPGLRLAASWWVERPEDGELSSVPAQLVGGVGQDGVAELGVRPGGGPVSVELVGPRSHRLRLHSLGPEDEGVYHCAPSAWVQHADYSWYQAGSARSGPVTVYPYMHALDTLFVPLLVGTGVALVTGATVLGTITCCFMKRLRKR
UniProt A1L0T0: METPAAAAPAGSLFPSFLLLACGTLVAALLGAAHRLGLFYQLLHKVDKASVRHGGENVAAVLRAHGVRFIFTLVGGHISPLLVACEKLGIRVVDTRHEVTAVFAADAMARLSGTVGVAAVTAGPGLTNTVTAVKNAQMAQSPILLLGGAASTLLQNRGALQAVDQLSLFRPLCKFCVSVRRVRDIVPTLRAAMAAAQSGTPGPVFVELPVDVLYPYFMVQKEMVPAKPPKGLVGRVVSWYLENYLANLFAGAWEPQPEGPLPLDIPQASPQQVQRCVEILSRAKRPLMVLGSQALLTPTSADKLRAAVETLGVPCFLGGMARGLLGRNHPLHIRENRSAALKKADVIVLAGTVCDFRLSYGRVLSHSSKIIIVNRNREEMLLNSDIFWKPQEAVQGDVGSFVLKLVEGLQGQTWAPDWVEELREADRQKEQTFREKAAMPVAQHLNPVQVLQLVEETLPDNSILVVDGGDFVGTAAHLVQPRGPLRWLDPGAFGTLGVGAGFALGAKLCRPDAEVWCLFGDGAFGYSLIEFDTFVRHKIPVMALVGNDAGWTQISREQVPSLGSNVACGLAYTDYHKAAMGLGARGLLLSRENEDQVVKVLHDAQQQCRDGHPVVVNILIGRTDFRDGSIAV
UniProt Q9BUP3: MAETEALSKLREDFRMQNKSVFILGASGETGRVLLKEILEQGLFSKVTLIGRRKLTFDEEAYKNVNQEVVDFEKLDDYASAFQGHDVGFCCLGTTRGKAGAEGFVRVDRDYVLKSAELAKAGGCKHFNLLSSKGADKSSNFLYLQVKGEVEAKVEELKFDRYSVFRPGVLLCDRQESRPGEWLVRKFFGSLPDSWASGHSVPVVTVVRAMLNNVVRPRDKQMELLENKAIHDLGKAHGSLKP
UniProt Q9NZI8, whole entry, looked up: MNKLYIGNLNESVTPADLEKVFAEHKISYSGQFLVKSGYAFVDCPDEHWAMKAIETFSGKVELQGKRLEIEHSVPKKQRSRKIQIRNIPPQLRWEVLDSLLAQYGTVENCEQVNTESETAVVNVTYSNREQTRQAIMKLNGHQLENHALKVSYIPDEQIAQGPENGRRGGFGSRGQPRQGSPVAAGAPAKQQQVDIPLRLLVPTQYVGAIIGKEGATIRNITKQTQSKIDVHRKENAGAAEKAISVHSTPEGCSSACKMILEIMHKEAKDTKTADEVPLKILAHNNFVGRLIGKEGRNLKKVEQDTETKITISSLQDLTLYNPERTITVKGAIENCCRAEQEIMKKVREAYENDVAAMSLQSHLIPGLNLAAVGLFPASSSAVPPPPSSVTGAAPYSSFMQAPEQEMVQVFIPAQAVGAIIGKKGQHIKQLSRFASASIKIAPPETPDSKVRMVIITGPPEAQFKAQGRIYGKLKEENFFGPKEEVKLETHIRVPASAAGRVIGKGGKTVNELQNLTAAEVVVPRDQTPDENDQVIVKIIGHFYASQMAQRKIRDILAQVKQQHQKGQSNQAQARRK
UniProt P29218: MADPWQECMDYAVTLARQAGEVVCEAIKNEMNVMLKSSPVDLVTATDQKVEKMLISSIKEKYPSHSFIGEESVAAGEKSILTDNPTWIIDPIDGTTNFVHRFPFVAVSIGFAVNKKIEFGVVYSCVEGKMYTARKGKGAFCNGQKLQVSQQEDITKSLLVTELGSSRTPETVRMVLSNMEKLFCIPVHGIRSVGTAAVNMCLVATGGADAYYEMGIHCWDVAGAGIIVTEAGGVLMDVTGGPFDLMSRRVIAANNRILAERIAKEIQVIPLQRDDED
UniProt O75874, whole entry, looked up: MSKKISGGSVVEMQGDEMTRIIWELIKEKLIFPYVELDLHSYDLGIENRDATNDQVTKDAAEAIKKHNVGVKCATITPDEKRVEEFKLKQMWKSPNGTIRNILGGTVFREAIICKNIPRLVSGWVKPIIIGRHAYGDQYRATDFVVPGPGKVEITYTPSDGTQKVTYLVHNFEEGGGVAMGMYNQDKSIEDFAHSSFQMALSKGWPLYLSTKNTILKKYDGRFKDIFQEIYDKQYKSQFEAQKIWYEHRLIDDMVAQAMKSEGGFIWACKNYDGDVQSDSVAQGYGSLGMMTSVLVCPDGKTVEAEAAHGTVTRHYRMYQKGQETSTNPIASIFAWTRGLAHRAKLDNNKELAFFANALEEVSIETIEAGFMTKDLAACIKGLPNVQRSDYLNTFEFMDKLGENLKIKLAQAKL
UniProt Q08334: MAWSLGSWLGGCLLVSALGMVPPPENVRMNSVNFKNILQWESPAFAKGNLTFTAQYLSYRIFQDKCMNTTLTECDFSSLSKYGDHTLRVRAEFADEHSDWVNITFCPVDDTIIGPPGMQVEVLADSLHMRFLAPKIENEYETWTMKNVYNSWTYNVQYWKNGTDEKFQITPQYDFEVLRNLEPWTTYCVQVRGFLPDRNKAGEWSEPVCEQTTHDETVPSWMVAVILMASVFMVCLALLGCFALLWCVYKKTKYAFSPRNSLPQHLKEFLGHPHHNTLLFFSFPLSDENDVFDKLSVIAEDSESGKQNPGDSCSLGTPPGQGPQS
UniProt Q9UMF0: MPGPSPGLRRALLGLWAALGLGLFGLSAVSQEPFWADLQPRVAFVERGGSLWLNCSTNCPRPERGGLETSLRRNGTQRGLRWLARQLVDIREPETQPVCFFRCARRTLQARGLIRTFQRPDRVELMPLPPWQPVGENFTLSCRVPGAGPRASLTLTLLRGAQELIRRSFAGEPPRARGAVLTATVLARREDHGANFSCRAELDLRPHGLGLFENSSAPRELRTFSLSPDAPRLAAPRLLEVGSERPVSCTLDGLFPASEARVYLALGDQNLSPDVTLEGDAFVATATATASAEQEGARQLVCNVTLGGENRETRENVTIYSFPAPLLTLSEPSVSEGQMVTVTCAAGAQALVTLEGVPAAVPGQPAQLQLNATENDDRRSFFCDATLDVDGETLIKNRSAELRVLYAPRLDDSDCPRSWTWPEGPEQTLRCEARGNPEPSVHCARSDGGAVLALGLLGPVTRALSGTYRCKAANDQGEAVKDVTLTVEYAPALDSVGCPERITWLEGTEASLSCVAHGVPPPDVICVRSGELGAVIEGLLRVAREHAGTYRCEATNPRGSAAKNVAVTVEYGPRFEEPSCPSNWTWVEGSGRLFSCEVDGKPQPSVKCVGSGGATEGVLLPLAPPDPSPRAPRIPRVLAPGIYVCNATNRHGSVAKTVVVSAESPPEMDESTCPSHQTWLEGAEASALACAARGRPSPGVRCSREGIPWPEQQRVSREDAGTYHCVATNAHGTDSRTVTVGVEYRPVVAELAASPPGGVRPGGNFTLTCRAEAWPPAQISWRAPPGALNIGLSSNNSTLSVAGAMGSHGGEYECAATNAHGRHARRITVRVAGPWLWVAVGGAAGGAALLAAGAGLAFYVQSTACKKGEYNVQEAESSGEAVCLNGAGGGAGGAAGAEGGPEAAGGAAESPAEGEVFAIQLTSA
UniProt Q9NX55: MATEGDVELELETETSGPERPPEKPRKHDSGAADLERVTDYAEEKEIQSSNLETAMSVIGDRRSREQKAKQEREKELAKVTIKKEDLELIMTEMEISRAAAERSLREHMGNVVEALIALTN
UniProt Q01628, whole entry, looked up: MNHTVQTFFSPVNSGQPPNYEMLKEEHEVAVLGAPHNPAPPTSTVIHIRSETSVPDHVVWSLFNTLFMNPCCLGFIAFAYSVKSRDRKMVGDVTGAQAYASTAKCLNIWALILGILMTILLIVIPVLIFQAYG

The list shows a part of the results.

Compound in this test: Cc1ncc(-c2ccnc(Nc3ccc(S(C)(=O)=O)cc3)n2)n1C(C)C
Briefly: log2 fold change, soluble protein after heating vs DMSO (PISA); higher = thermal stabilisation; K562 lysate, 10 uM; active = over 0.2 and 3.5 SD of the protein, either way, in both replicates (recomputed). Put shortly:
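Soluble protein was defined as the supernatant remaining after 21,000xg for 90 min, following pooling of heated aliquots and adjustment to 0.5% NP-40 at 4°C. Before that, crude K562 extract at 1 mg/mL protein in PBS pH 7.4 with 1 mM MgCl2 was treated with 10 μM compound for 30 min and heated for 3 min across 48°C-58°C. Quantification used TMTpro 16plex LC-MS/MS with channel sums equalised, and values are log-two fold changes in thermal stability relative to solvent controls from duplicates.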
As to IDH3A (UniProt P50213), the log2 fold change was inactive: 0.03. Next, IGSF3 (UniProt O75054): inactive: -0.028; ILKAP (UniProt Q9H0C8): inactive: -0.094. In the case of ICAM1 (UniProt P05362), the log2 fold change was inactive: -0.015. With IDH3B (UniProt O43837), the log2 fold change was inactive: 0.008. Then IGSF8 (UniProt Q969P0), with inactive: -0.117; and ILVBL (UniProt A1L0T0), with inactive: 0.05; and IDE, A0A3B3ISG5, with inactive: 0.014. Next, ILF2 (UniProt Q12905): inactive: 0.006. With HTATIP2 isoform 3 (UniProt Q9BUP3), the log2 fold change was inactive: -0.005. As for IGF2BP1 (UniProt Q9NZI8), the log2 fold change is inactive: 0.002. Then HYOU1 (UniProt J3QL06), with inactive: -0.098. Then IMPA1 isoform 3 (UniProt P29218), with inactive: -0.005.

Regarding IDH1 (UniProt O75874), the log2 fold change is inactive: 0.

Take HUWE1 (UniProt Q7Z6Z7): the log2 fold change is inactive: -0.001. Consider HSPA8 (UniProt P11142), for which the log2 fold change is inactive: 0.004.

Regarding IL10RB (UniProt Q08334), the log2 fold change is inactive: 0.132. Then IDH3G (UniProt P51553), with inactive: 0.018; and ICAM5 (UniProt Q9UMF0), with inactive: 0.036.

For the target IBA57 (UniProt Q5T440), the log2 fold change was inactive: -0.015. For the target IGBP1 (UniProt P78318), the log2 fold change is inactive: 0.036.

Turning to IFI30 (UniProt P13284), the log2 fold change was inactive: 0.048. Next, HYPK (UniProt Q9NX55): inactive: 0.032. Next, IFITM3 (UniProt Q01628): inactive: -0.013.
